Assay results as given in patent US20090304686A1, “INTERFERING IN ACTIVATION OF AN IMMUNE CELL BY INFLUENCING INTERACTION OF LAIR AND COLLAGEN” (UNIVERSOTAIR MEDISCH CENTRUM UTRECHT, priority 2006, published 2009).
No constants are given. Whether binding was seen depends on the method and setting. Some binding calls cover weakened binding; strength is not graded here. For part of these data: Sequences can lack the tags named with a protein.

Amino acid sequences for entries named in this document (tags omitted). Residues count along the entry.
UniProt P02461, residues 154-1221: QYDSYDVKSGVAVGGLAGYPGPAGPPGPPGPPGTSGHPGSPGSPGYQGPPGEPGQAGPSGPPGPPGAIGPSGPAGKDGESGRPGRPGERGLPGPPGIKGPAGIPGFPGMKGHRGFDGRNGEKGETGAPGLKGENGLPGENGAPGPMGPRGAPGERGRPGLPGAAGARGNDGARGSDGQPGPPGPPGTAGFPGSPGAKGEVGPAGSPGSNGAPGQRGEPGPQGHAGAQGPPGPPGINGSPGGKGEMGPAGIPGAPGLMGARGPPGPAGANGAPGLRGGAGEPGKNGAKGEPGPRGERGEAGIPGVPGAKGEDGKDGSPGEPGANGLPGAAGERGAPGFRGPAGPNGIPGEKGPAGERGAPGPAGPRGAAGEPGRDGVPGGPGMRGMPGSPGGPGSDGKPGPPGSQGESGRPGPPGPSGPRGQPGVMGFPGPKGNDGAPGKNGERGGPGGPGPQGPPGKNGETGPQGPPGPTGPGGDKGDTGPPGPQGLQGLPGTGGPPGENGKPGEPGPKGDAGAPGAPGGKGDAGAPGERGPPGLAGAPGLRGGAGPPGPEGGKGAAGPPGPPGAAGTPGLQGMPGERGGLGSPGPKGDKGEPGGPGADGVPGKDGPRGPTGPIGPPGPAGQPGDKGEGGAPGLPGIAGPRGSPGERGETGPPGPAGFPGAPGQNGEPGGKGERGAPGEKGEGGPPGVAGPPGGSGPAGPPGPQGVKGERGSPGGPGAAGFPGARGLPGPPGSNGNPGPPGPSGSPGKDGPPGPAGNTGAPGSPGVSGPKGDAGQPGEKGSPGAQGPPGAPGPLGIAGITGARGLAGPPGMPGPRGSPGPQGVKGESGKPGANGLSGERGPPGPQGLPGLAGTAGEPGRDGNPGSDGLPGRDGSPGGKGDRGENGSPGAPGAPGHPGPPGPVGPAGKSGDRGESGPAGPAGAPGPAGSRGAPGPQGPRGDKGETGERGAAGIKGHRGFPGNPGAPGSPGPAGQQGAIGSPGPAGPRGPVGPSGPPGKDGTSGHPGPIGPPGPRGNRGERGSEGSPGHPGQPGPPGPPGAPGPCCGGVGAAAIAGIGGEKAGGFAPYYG

Assays:
[1] = biological target: HIS-tagged human collagen XIII (transiently expressed on 293T cells) (human) (UniProt Q5TAT6); experiment: flow cytometry on transiently transfected 293T cells (hLAIR-1-IgG shown in FIG. 3B)
[2] = biological target: HIS-tagged human collagen XIII (transiently expressed on 293T cells) (human) (UniProt Q5TAT6); experiment: flow cytometry on transient transfectants
[3] = biological target: collagen III (purified, Sigma; acid-soluble human collagen type III in BIAcore) (human) (UniProt P02461); experiment: blocking of adhesion of hLAIR-1 K562 cells to plate-bound collagen III by supernatant with wild-type LAIR-2
[4] = biological target: collagen III (purified, Sigma; acid-soluble human collagen type III in BIAcore) (human) (UniProt P02461); experiment: blocking assay: coated collagen III pre-incubated with concentrated supernatant, blocked partner hLAIR-1 on K562 cells
[5] = biological target: HIS-tagged human collagen XIII (transiently expressed on 293T cells) (human) (UniProt Q5TAT6); experiment: flow cytometry on 293T cells transiently transfected with HIS-tagged collagens

B1: hLAIR-1-IgG (extracellular domain of human LAIR-1 fused to the Fc region of human IgG1) (Fc fusion, UniProt Q6GTX8 22-165, looked up, not shown: a dimerising Fc or GST)
chain: QEEDLPRPSISAEPGTVIPLGSHVTFVCRGPVGVQTFRLERDSRSTYNDTEDVSQASPSESEARFRIDSVREGNAGLYRCIYYKPPKWSEQSDYLELLVKESSGGPDSPDTEPGSSAGPTQRPSDNSHNEHAPASQGLKAEHLY
With B1 the binding [1] was “binds” and the binding [2] was “binds”.

B2: LAIR-2 (wild-type, secreted/soluble protein) (receptor, human, UniProt Q6ISS4-2 22-135, looked up)
chain: QEGALPRPSISAEPGTVISPGSHVTFMCRGPVGVQTFRLEREDRAKYKDSYNVFRLGPSESEARFHIDSVSEGNAGLYRCLYYKPPGWSEHSDFLELLVKGTVPGTEASGFDAP
B2 was tested, and the binding [3] was “binds” and the binding [4] was “binds”.

B3: mLAIR-1-IgG (mouse LAIR-1 fused to the Fc region of human IgG1) (Fc fusion, UniProt Q8BG84 22-144, looked up, not shown: a dimerising Fc or GST)
chain: QEGSLPDITIFPNSSLMISQGTFVTVVCSYSDKHDLYNMVRLEKDGSTFMEKSTEPYKTEDEFEIGPVNETITGHYSCIYSKGITWSERSKTLELKVIKENVIQTPAPGPTSDTSWLKTYSIY
For B3, the binding [5] was “binds”.

B4: rLAIR-1-IgG (rat LAIR-1 fused to the Fc region of human IgG1) (Fc fusion, UniProt P0C1X9 22-143, looked up, not shown: a dimerising Fc or GST)
chain: QEESLSDFTICAEPGPVIPQGNFITIVCSTSGEYDTVRLEKEGSTFMEKKTEPHGKQHRFRIGPVNETITGYYNCIFEKNYVWSQRSNDLQLKVIKENVTQGLAPGPSMTSDTSWLKTYSIH
For B4, the binding [5] was “binds”.
